The supplement of paper PMC12067093, “Discovery and optimisation of a covalent ligand for TRIM25 and its application to targeted protein ubiquitination” (Chemical Science, 2025)
The list shows a part of the results.

The chains behind the UniProt entries cited, without tags or fusion partners. Where a name states a change or a piece, a line headed by the entry shows the natural chain unless it says otherwise.
UniProt P62318, whole entry, looked up: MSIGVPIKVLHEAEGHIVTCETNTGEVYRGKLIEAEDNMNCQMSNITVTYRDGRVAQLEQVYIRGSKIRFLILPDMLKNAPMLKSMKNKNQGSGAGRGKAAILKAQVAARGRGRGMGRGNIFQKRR
UniProt Q8N0X7: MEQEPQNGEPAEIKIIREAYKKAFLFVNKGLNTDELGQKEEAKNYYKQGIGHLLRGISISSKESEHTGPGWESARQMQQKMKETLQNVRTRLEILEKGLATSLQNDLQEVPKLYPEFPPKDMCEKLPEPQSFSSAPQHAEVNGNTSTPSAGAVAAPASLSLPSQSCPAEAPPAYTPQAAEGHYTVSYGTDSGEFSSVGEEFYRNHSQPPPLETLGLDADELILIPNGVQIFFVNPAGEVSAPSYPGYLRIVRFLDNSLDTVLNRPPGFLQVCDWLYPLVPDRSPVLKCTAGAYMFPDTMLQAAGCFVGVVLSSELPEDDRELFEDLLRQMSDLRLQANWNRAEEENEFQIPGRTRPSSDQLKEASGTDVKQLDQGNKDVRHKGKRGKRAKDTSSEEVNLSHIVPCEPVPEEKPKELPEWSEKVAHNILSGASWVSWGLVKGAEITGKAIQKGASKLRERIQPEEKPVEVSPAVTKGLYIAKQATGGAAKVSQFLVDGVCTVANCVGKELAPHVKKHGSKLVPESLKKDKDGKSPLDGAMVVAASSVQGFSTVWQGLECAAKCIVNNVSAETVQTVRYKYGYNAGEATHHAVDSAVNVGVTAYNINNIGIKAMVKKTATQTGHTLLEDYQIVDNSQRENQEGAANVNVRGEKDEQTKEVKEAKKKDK

How the values were obtained:
[1] = target: SNRPD3_P62318_20_VLHEAEGHIVTCETNTGEVYR (UniProt P62318); assay: probe-labelled cysteine peptide fold change vs DMSO (competition) (log2 fold change); higher = less target engagement (more negative = stronger competition); settings: THP-1, incubation time: 4 h
[2] = target: SPART_Q8N0X7_405_DTSSEEVNLSHIVPCEPVPEEKPK (UniProt Q8N0X7); assay: as above; settings: THP-1, incubation time: 4 h
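Note: competitive profiling in live THP-1 cells: cysteine peptides tagged with an iodoacetamide desthiobiotin (IA-DTB) probe, intensity after compound treatment relative to DMSO-treated cells.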

Q: `Cc1cc(C(=O)N2CCCN(C(=O)CCl)CC2)ccc1-c1ccccc1` [compound 10] was tested. Which “probe-labelled cysteine peptide fold change” value ([1]; 10 µM) did it give?
A: -0.0144

Q: What about the “probe-labelled cysteine peptide fold change” value ([1]; 50 µM) of the same compound?
A: 0.0858

Q: And the “probe-labelled cysteine peptide fold change” value ([2]; 10 µM)?
A: -0.391

Q: What about the “probe-labelled cysteine peptide fold change” value ([2]; 50 µM) of the same compound?
A: -0.305
